# Assay results taken from patent publication US7897340B2, “Use of tumor susceptibilty gene 101 (TSG 101) as a prognostic and diagnostic marker” (The Board of Regents of the University of Texas System, priority 2006, dated 2011).
# At least one structure is not confirmed: it was looked up by name or label, or the drawing left a doubt.
# Test system: TSG101
# Test: TSG101 protein levels by immunoblotting in T29H cells
# Type: cell-based, human
# Conditions: inhibitor pretreatment 24 hrs (FTI-277 10 μM, U0126 20 μM, LY294002 10 μM)
# Description: Antigen-antibody complexes were detected by enhanced chemiluminescence (Pierce).
structure (smiles),measurement,value
O=c1cc(N2CCOCC2)oc2c(-c3ccccc3)cccc12 [LY294002],TSG101 protein levels,minimal effects
